Laboratory results reported in the supplement of paper PMC10849652.
The other results are listed elsewhere or left out.

Amino acid sequences for entries named in this document (tags omitted). A change or cut given only in a name is not applied to a line headed by its entry.
UniProt P23381: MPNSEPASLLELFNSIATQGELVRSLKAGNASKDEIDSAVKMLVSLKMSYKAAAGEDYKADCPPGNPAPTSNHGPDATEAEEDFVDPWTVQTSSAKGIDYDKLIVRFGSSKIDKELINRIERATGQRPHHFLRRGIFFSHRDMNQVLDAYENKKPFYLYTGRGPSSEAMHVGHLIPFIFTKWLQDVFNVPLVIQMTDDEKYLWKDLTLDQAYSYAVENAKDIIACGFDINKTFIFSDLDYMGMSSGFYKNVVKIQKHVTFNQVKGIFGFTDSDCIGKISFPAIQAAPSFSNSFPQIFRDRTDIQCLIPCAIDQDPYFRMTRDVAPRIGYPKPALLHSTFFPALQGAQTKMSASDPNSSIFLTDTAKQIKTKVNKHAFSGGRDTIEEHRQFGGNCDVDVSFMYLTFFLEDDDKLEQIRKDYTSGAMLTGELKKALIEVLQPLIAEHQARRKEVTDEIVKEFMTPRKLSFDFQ
UniProt Q6RFH5: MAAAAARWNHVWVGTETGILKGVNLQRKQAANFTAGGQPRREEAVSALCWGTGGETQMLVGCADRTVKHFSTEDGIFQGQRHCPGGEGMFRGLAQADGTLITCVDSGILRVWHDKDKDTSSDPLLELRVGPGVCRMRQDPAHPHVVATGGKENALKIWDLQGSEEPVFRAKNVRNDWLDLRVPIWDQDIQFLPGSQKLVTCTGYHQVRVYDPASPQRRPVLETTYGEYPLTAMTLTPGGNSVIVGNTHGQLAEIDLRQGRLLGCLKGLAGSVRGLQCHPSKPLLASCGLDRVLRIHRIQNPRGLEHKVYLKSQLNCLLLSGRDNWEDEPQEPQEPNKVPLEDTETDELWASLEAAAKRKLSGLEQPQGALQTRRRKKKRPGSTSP
UniProt Q9Y484: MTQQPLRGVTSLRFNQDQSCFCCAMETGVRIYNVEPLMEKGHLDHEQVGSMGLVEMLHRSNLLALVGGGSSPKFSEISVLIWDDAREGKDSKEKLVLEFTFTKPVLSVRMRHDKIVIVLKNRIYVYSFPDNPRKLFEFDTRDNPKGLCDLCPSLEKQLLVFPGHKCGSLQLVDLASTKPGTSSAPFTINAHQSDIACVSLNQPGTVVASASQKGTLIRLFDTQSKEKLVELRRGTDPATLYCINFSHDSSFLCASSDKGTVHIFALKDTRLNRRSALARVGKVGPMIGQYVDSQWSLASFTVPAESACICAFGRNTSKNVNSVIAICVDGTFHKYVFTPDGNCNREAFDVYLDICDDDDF
UniProt Q96GC9: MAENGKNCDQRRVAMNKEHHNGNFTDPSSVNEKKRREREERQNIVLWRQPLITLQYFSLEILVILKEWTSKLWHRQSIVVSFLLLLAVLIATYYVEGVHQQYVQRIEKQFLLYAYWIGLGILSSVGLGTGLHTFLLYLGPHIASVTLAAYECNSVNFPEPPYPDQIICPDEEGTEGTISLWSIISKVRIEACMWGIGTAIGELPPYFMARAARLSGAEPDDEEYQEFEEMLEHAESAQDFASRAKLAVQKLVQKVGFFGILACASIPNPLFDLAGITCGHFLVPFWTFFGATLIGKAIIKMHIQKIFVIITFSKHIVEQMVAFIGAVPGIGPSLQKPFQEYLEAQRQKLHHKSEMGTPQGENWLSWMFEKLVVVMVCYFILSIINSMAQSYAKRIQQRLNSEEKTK
UniProt Q9Y4E6, whole entry, looked up: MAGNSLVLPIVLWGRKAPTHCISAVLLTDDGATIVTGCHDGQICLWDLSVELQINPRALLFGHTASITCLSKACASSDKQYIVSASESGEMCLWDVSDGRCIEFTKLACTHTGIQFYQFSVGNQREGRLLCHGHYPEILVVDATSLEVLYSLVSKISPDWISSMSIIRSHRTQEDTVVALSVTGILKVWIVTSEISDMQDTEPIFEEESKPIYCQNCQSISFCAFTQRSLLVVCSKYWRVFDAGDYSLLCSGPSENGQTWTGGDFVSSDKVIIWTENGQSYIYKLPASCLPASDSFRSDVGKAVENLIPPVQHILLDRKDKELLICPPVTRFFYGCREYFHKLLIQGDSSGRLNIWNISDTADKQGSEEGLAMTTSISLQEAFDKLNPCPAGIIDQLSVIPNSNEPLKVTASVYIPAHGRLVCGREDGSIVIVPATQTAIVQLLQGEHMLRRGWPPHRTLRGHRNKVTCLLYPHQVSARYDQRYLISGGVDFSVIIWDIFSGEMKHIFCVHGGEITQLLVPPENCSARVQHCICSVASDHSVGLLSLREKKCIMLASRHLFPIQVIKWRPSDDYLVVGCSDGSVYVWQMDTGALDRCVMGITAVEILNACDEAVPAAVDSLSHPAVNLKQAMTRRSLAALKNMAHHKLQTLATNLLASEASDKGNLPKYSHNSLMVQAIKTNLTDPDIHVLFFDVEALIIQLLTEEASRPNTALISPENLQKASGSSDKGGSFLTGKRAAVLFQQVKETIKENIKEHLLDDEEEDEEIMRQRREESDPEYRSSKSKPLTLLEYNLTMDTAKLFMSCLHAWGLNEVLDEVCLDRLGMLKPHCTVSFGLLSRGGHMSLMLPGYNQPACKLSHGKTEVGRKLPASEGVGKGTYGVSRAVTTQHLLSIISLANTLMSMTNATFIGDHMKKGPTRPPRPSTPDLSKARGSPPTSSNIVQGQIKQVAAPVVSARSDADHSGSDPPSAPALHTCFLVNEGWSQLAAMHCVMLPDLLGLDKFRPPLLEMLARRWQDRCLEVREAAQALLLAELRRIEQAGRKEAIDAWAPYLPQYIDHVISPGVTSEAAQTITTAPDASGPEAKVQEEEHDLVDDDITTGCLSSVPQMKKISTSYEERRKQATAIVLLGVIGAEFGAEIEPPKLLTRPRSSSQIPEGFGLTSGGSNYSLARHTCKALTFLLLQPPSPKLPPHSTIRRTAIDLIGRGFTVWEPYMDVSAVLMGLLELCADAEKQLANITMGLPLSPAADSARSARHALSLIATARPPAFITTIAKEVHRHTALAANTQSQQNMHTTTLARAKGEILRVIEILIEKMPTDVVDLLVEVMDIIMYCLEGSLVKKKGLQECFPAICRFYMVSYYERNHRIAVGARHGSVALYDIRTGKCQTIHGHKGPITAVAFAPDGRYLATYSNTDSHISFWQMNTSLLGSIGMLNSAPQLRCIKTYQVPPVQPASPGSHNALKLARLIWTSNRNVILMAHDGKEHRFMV
UniProt P98170, whole entry, looked up: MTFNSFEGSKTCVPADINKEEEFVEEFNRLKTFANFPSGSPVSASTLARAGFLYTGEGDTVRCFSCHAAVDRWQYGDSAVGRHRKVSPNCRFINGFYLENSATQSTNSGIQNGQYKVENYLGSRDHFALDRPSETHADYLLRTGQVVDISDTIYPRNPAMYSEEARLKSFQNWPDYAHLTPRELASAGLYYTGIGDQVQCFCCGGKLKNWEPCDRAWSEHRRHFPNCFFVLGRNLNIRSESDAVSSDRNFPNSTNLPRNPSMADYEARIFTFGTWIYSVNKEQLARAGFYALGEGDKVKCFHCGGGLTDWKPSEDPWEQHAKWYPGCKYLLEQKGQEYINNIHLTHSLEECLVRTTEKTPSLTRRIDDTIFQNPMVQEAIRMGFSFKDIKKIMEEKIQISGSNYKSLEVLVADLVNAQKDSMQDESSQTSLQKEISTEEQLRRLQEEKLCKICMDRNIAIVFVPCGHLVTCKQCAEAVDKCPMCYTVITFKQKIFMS
UniProt Q9Y4E1, whole entry, looked up: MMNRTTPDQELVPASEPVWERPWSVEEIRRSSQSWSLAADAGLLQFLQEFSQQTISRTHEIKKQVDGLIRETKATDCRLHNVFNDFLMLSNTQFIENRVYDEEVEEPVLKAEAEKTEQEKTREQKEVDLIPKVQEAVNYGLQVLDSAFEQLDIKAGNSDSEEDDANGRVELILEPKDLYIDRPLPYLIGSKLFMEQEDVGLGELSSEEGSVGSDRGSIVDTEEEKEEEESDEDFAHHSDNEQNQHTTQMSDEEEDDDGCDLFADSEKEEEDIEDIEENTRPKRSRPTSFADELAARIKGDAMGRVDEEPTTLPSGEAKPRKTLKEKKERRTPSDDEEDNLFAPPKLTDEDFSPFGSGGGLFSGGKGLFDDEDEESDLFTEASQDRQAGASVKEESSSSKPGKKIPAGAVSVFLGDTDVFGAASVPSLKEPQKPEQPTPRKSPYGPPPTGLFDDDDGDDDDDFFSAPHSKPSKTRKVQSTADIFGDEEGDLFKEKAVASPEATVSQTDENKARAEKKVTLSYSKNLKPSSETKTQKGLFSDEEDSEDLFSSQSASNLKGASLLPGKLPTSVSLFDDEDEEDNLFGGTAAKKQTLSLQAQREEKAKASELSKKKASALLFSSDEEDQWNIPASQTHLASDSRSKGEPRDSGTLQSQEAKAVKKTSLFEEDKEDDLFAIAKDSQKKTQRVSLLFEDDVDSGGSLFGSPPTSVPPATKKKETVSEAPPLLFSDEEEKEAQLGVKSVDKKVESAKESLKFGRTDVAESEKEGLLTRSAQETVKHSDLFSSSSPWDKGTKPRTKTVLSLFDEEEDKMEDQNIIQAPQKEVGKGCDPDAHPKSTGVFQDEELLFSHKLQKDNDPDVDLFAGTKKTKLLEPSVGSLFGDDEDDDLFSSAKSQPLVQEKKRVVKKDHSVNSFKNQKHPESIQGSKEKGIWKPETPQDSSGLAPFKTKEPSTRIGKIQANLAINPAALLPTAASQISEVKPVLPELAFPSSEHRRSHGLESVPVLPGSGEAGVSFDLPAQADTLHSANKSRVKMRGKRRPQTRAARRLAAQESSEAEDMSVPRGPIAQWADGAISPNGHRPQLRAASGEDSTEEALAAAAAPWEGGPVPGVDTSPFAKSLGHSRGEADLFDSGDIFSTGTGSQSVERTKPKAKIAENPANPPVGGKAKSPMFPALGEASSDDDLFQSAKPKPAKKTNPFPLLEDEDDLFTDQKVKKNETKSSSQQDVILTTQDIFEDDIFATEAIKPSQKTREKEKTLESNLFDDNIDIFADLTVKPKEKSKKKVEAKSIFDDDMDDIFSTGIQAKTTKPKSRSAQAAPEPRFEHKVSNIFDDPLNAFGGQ
UniProt Q9H1Z4: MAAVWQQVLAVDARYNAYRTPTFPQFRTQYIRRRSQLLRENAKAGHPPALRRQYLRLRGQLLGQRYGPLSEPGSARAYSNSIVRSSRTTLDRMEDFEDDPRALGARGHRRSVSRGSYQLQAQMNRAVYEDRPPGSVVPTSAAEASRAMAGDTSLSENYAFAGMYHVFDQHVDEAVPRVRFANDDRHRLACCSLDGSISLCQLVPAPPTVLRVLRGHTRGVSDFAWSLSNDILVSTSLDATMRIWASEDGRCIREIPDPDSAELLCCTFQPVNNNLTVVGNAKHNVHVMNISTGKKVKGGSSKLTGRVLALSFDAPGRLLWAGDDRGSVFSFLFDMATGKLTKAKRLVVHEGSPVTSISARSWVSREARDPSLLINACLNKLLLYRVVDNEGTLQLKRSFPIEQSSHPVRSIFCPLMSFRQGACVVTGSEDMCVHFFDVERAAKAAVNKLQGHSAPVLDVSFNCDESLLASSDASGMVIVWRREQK

Tests used:
Assay in all cases: log2 fold change, soluble protein after heating vs DMSO (PISA); higher = thermal stabilisation; K562 lysate, 10 uM; active = over 0.2 and 3.5 SD of the protein, either way, in both replicates (recomputed)
vemurafenib = compound: CCCS(=O)(=O)Nc1ccc(F)c(C(=O)c2c[nH]c3ncc(-c4ccc(Cl)cc4)cc23)c1F [vemurafenib]
Summary of the method: (§1)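 Following dounce homogenisation of K562 pellets in PBS pH 7.4 with 1 mM MgCl2, crude extract at 1 mg/mL protein was incubated for 30 min with 10 μM compound. Aliquots were then heated for 3 min over 48°C-58°C and pooled, NP-40 was added to 0.5% at 4°C, and soluble protein was recovered as the supernatant at 21,000xg for 90 min. Channel-sum-equalised TMTpro 16plex LC-MS/MS quantified this protein. Each value, from duplicates, is a log-two fold change in thermal stability relative to solvent controls.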

[1] = compound: CCCS(=O)(=O)Nc1ccc(F)c(C(=O)c2c[nH]c3ncc(Cl)cc23)c1F
Summary of the method: as §1

barasertib = compound: CCN(CCCOc1ccc2c(Nc3cc(CC(=O)Nc4cccc(F)c4)[nH]n3)ncnc2c1)CCOP(=O)(O)O [barasertib]
Summary of the method: as §1

[2] = compound: CC[C@@H]1C(=O)N(C)c2cnc(Nc3ccc(C(=O)NC4CCN(C)CC4)cc3OC)nc2N1C1CCCC1
Summary of the method: as §1

volasertib = compound: CC[C@@H]1C(=O)N(C)c2cnc(Nc3ccc(C(=O)N[C@H]4CC[C@H](N5CCN(CC6CC6)CC5)CC4)cc3OC)nc2N1C(C)C [volasertib]
Summary of the method: as §1

[3] = compound: CCn1c(C(=O)N(C2CC2)C2CC2)cc2c3c(ncn3C)c(Nc3cc(C)n(C)n3)nc21
Summary of the method: as §1

[4] = compound: CCn1cc(-c2ccnc3[nH]c(-c4cccc(CN(C)C)c4)cc23)c(-c2ccc(NC(=O)N(C)C)cc2)n1
Summary of the method: as §1

[5] = compound: CN1CCC(CNc2ccc3ncc(-c4cccc(OC(F)(F)F)c4)n3n2)CC1
Summary of the method: as §1

saracatinib = compound: CN1CCN(CCOc2cc(OC3CCOCC3)c3c(Nc4c(Cl)ccc5c4OCO5)ncnc3c2)CC1 [saracatinib]
Summary of the method: as §1

sotrastaurin = compound: CN1CCN(c2nc(C3=C(c4c[nH]c5ccccc45)C(=O)NC3=O)c3ccccc3n2)CC1 [sotrastaurin]
Summary of the method: as §1

alvocidib = compound: CN1CC[C@H](c2c(O)cc(O)c3c(=O)cc(-c4ccccc4Cl)oc23)[C@H](O)C1 [alvocidib]
Summary of the method: as §1

Tubastatin A = compound: CN1CCc2c(c3ccccc3n2Cc2ccc(C(=O)NO)cc2)C1 [Tubastatin A]
Summary of the method: as §1

[6] = compound: CNC(=O)C1=CC=CC=C1NC2=NC(=NC=C2Cl)NC3=C(C=C(C=C3)N4CCOCC4)OC
Summary of the method: as §1

defactinib = compound: CNC(=O)c1ccc(Nc2ncc(C(F)(F)F)c(NCc3nccnc3N(C)S(C)(=O)=O)n2)cc1 [defactinib]
Summary of the method: as §1

[7] = compound: CNc1nc(-c2ccc3c(N)n[nH]c3c2)cc(N2C[C@@H](C(=O)NC3CCCCC3)CC[C@H]2C)n1
Summary of the method: as §1

encorafenib = compound: COC(=O)N[C@@H](C)CNc1nccc(-c2cn(C(C)C)nc2-c2cc(Cl)cc(NS(C)(=O)=O)c2F)n1 [encorafenib]
Summary of the method: as §1

[8] = compound: COC(=O)[C@H](CCSC)NC(=O)C1=C(C=C(C=C1)NC[C@H](CS)N)C2=CC=CC=C2
Summary of the method: as §1

alisertib = compound: COc1cc(Nc2ncc3c(n2)-c2ccc(Cl)cc2C(c2c(F)cccc2OC)=NC3)ccc1C(=O)O [alisertib]
Summary of the method: as §1

[9] = compound: COc1cc2nc(-c3cc(F)ccc3O)nc(N[C@@H]3CNC[C@H]3C(C)(C)O)c2cc1OC
Summary of the method: as §1

gefitinib = compound: COc1cc2ncnc(Nc3ccc(F)c(Cl)c3)c2cc1OCCCN1CCOCC1 [gefitinib]
Summary of the method: as §1

Measured: log2 fold change

WARS (UniProt P23381)
inactive: vemurafenib -0.008 | [1] -0.012 | barasertib -0.043 | [2] 0.048 | volasertib 0.016 | [3] -0.025 | [4] 0.131 | [5] -0.061 | saracatinib -0.002 | sotrastaurin -0.052 | alvocidib 0.074 | Tubastatin A 0.046 | [6] 0.03 | defactinib -0.005 | [7] 0.053 | encorafenib -0.029 | [8] -0.033 | alisertib -0.024 | [9] -0.01 | gefitinib -0.099

WDR74 (UniProt Q6RFH5)
inactive: vemurafenib 0.02 | [1] 0.026 | barasertib 0.034 | [2] 0.082 | volasertib -0.004 | [3] -0.113 | [4] -0.037 | [5] 0.006 | saracatinib 0.077 | sotrastaurin -0.016 | alvocidib 0.004 | Tubastatin A -0.023 | [6] 0.025 | defactinib -0.031 | [7] -0.034 | encorafenib 0.035 | [8] -0.016 | alisertib 0 | [9] -0.072 | gefitinib -0.002

WRNIP1 (UniProt Q96S55)
inactive: vemurafenib 0.036 | [1] 0.042 | barasertib 0.064 | [2] -0.114 | volasertib -0.128 | [3] 0.014 | [4] -0.026 | [5] 0.03 | saracatinib -0.006 | sotrastaurin 0.042 | alvocidib 0.005 | Tubastatin A -0.229 | [6] 0.01 | defactinib 0.01 | [7] -0.044 | encorafenib 0.024 | alisertib -0.022 | [9] -0.014 | gefitinib 0.033
active: [8] 0.222

WDR45 isoform 2 (UniProt Q9Y484)
inactive: vemurafenib -0.028 | [1] 0.043 | barasertib 0.005 | [2] 0.052 | volasertib 0 | [3] 0.12 | [4] -0.19 | [5] 0.086 | saracatinib 0.01 | sotrastaurin 0.024 | alvocidib -0.065 | Tubastatin A -0.067 | [6] -0.001 | defactinib 0.013 | [7] -0.059 | encorafenib -0.042 | [8] -0.051 | alisertib 0.021 | [9] -0.008 | gefitinib 0.037

VMP1 (UniProt Q96GC9)
inactive: vemurafenib 0.027 | [1] 0.033 | barasertib -0.061 | [2] 0.063 | volasertib 0.001 | [3] -0.119 | [4] -0.359 | [5] 0.05 | saracatinib 0.014 | sotrastaurin 0.141 | alvocidib -0.143 | Tubastatin A 0.017 | [6] 0.005 | defactinib 0.029 | [7] -0.069 | encorafenib 0.074 | [8] -0.097 | alisertib -0.01 | [9] 0.031 | gefitinib -0.003

WDR59 (UniProt Q6PJI9)
inactive: vemurafenib 0.055 | [1] 0.017 | barasertib 0.05 | [2] 0.029 | volasertib -0.047 | [3] -0.021 | [4] 0 | [5] -0.027 | saracatinib 0.031 | sotrastaurin 0.014 | alvocidib -0.028 | Tubastatin A -0.098 | [6] -0.027 | defactinib 0.018 | [7] -0.044 | encorafenib 0.004 | [8] 0.197 | alisertib 0.028 | [9] -0.008 | gefitinib -0.09

WRAP73 (UniProt Q9P2S5)
inactive: vemurafenib 0.085 | [1] 0.035 | barasertib -0.071 | [2] 0.035 | volasertib 0.011 | [3] -0.068 | [4] -0.173 | [5] 0.038 | saracatinib 0 | sotrastaurin 0.068 | alvocidib -0.005 | Tubastatin A 0.015 | [6] -0.041 | defactinib 0.025 | [7] -0.138 | encorafenib 0 | [8] -0.107 | alisertib 0.086 | [9] 0.006 | gefitinib 0.064

WBP2 (UniProt Q969T9)
inactive: vemurafenib -0.009 | [1] 0.021 | barasertib -0.018 | [2] 0.056 | volasertib 0.018 | [3] 0.011 | [4] 0.155 | [5] -0.028 | saracatinib 0.003 | sotrastaurin -0.033 | alvocidib 0.035 | Tubastatin A 0.039 | [6] -0.007 | defactinib 0.056 | [7] 0.035 | encorafenib -0.005 | [8] -0.076 | alisertib -0.023 | [9] -0.014 | gefitinib 0.03

VPS41 (UniProt P49754)
inactive: vemurafenib -0.018 | [1] -0.016 | barasertib 0.085 | [2] 0.005 | volasertib -0.078 | [3] 0.06 | [4] 0.074 | [5] -0.054 | saracatinib 0.002 | sotrastaurin 0.058 | alvocidib 0.068 | Tubastatin A -0.128 | [6] 0.03 | defactinib 0.006 | [7] -0.055 | encorafenib 0.019 | [8] -0.072 | alisertib -0.043 | [9] 0.006 | gefitinib -0.004

WDR7 (UniProt Q9Y4E6)
inactive: vemurafenib -0.005 | [1] -0.035 | barasertib -0.019 | [2] -0.041 | volasertib -0.057 | [3] 0.029 | [4] -0.007 | [5] 0.047 | saracatinib -0.018 | sotrastaurin 0.01 | alvocidib -0.008 | Tubastatin A 0.008 | [6] 0 | defactinib -0.025 | [7] 0.026 | encorafenib 0.092 | [8] -0.055 | alisertib -0.007 | [9] -0.01 | gefitinib -0.025

WWP2 (UniProt O00308)
inactive: vemurafenib 0.02 | [1] -0.016 | barasertib 0.089 | [2] -0.047 | volasertib -0.013 | [3] 0.122 | [4] 0.024 | [5] 0.019 | saracatinib 0.052 | sotrastaurin -0.06 | alvocidib -0.037 | Tubastatin A -0.09 | [6] 0.001 | defactinib -0.177 | [7] 0.095 | encorafenib 0.021 | [8] 0.001 | alisertib 0.008 | [9] -0.001 | gefitinib 0.01

XIAP (UniProt P98170)
inactive: vemurafenib -0.02 | [1] -0.004 | barasertib 0.008 | [2] 0.012 | volasertib -0.043 | [3] -0.05 | [4] -0.079 | [5] 0.059 | saracatinib -0.006 | sotrastaurin -0.006 | alvocidib -0.028 | Tubastatin A 0.013 | [6] -0.019 | defactinib -0.045 | [7] 0.016 | encorafenib -0.003 | [8] 0.001 | alisertib -0.05 | [9] -0.007 | gefitinib -0.021

WASHC2C (UniProt Q9Y4E1)
inactive: vemurafenib 0.045 | [1] 0.015 | barasertib -0.03 | [2] 0.029 | volasertib 0.022 | [3] -0.053 | [4] -0.189 | [5] 0.105 | saracatinib 0.026 | sotrastaurin 0.043 | alvocidib -0.038 | Tubastatin A 0.022 | [6] 0.015 | defactinib 0.021 | [7] 0.027 | encorafenib 0.002 | [8] -0.074 | alisertib 0.056 | [9] 0.035 | gefitinib -0.015

WAPL isoform 3 (UniProt Q7Z5K2)
inactive: vemurafenib 0.028 | [1] 0.004 | barasertib 0 | [2] 0.01 | volasertib -0.035 | [3] 0.006 | [4] -0.083 | [5] 0.019 | saracatinib -0.001 | sotrastaurin 0.015 | alvocidib -0.032 | Tubastatin A -0.058 | [6] -0.009 | defactinib 0.025 | [7] 0.015 | encorafenib 0.024 | [8] 0.002 | alisertib -0.006 | [9] 0.014 | gefitinib -0.004

WDR13 (UniProt Q9H1Z4)
inactive: vemurafenib -0.001 | [1] 0.063 | barasertib 0.012 | [2] -0.017 | volasertib -0.014 | [3] 0.008 | [4] -0.012 | [5] 0.052 | saracatinib 0.033 | sotrastaurin -0.031 | alvocidib 0.003 | Tubastatin A 0.013 | [6] 0.013 | defactinib 0.023 | [7] -0.034 | encorafenib 0.029 | [8] -0.072 | alisertib 0.04 | [9] -0.054 | gefitinib 0.048

VPS35L (UniProt Q7Z3J2)
inactive: vemurafenib 0.016 | [1] 0.002 | barasertib 0.001 | [2] -0.072 | volasertib -0.047 | [3] -0.004 | [4] -0.02 | [5] -0.005 | saracatinib 0.004 | sotrastaurin 0.046 | alvocidib 0 | Tubastatin A -0.083 | [6] 0.015 | defactinib 0.036 | [7] -0.013 | encorafenib 0.014 | [8] 0.006 | alisertib -0.034 | [9] -0.023 | gefitinib -0.076
